Experimental data taken from the supplement of paper PMC12819154, “High-throughput peptide-centric local stability assay extends protein–ligand identification to membrane proteins, tissues and bacteria” (Nature Structural & Molecular Biology, 2025).
Some of the results follow. Most values lie at the level of the controls, where differences are scatter.

Amino acid sequences for entries named in this document (tags omitted). A change or cut given only in a name is not applied to a line headed by its entry.
UniProt Q9GZV4: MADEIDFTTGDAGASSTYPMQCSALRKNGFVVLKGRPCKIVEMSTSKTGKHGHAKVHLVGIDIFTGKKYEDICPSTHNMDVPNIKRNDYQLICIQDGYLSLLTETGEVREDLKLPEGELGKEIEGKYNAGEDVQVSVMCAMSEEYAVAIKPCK
UniProt Q9BWJ5: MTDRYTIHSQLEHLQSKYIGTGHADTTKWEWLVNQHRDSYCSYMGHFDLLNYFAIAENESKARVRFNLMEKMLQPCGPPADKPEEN
UniProt Q9H0S4: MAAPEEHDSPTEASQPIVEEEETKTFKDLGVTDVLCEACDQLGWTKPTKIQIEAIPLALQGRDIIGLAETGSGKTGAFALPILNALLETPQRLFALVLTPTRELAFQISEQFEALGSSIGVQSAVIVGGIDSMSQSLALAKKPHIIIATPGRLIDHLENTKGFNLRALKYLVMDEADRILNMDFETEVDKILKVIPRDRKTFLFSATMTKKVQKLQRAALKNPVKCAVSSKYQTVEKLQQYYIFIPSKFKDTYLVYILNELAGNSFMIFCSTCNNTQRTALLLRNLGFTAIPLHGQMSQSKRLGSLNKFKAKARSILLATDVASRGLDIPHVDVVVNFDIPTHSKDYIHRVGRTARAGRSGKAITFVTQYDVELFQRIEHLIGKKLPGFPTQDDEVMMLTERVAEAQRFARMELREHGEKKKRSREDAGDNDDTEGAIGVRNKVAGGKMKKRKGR
UniProt Q9BZE2: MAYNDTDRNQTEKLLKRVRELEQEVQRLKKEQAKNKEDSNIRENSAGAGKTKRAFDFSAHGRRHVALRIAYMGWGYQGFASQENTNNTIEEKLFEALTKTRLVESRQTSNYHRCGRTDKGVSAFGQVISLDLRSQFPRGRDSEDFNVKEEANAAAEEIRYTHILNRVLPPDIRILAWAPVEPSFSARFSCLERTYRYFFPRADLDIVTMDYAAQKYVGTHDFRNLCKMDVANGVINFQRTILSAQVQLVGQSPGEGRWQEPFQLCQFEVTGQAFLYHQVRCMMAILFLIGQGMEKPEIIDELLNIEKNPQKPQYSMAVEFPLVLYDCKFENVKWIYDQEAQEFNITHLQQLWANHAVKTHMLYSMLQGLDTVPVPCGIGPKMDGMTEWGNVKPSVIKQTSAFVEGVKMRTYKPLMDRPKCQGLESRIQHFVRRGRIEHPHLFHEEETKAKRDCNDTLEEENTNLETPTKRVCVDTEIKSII
UniProt Q9GZR1: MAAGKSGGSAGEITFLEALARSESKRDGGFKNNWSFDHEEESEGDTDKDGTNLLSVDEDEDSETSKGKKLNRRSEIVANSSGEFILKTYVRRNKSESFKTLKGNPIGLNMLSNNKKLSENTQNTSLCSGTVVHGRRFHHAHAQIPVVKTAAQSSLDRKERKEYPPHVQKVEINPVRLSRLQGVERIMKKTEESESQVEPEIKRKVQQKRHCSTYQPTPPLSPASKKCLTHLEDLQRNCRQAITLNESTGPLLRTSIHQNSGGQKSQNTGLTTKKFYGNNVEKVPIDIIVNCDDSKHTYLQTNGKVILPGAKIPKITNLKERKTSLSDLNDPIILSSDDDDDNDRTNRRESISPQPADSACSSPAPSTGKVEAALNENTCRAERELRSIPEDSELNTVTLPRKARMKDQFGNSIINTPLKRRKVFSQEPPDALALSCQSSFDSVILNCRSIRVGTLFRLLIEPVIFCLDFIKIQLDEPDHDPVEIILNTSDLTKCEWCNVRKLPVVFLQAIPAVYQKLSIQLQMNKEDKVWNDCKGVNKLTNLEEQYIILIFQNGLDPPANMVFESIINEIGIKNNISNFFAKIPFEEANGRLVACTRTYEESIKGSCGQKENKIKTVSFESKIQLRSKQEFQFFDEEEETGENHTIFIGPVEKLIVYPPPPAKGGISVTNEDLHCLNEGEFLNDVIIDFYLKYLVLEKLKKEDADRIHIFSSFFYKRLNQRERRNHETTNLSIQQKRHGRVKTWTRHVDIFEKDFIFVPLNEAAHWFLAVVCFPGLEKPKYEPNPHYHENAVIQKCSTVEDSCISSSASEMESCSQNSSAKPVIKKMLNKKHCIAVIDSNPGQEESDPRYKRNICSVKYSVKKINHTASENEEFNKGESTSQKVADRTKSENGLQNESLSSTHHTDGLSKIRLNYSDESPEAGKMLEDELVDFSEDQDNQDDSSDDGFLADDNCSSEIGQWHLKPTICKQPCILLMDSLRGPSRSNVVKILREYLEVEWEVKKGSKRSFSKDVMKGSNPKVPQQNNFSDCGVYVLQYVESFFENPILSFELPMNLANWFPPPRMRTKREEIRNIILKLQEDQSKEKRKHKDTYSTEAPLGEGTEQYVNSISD
UniProt Q9H467: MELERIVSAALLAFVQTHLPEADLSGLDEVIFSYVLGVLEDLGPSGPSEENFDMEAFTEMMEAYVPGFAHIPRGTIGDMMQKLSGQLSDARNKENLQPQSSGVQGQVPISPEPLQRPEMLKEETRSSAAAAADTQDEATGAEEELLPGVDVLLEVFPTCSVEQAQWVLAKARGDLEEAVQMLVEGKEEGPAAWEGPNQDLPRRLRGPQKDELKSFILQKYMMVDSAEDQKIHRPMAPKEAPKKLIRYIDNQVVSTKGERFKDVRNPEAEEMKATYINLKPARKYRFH
UniProt Q9H3F6: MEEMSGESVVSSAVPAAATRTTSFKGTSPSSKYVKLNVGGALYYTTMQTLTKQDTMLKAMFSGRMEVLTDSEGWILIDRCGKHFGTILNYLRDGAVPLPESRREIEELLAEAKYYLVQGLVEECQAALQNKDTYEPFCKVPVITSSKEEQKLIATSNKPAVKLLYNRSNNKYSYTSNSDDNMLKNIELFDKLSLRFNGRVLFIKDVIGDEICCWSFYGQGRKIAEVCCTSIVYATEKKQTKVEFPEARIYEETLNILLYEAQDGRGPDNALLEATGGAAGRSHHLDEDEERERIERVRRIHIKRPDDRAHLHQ
UniProt Q9H115: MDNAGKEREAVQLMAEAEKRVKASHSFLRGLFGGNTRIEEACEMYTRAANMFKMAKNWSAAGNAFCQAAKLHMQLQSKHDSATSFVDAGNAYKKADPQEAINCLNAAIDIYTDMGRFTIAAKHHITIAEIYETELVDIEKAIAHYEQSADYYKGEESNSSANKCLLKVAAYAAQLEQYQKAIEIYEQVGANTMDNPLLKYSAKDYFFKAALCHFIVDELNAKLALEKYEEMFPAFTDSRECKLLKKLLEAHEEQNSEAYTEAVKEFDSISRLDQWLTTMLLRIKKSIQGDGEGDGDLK
UniProt Q9H2X6: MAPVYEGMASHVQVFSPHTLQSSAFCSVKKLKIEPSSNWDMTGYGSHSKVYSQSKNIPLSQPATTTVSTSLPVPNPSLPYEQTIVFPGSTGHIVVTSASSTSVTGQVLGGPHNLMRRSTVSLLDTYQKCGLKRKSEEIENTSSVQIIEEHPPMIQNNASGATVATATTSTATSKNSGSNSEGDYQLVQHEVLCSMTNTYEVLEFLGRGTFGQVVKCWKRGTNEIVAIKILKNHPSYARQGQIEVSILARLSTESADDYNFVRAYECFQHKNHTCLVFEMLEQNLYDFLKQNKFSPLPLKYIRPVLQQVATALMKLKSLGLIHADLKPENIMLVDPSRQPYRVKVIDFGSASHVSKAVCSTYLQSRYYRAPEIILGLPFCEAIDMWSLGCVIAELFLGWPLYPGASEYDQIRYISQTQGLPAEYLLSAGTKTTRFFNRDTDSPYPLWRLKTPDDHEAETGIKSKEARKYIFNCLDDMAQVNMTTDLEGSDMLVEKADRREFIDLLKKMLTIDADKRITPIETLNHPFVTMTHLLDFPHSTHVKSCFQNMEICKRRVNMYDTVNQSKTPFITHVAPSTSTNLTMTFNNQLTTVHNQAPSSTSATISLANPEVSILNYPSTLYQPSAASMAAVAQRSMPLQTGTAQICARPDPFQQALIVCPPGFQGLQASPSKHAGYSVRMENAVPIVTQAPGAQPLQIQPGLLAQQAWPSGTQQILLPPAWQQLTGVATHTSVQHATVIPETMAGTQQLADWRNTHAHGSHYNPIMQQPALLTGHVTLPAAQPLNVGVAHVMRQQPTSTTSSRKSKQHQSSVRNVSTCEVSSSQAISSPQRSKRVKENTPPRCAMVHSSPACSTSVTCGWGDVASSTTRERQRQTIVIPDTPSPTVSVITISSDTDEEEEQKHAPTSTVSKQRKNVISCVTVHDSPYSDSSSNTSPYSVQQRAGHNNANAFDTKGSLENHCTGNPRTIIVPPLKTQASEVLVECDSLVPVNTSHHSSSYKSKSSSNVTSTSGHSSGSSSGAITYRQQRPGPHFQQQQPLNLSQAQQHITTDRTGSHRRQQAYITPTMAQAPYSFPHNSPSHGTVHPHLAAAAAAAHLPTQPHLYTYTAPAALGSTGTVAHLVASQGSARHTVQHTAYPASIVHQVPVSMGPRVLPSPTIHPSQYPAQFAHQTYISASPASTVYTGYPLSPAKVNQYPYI
UniProt Q9GZU8: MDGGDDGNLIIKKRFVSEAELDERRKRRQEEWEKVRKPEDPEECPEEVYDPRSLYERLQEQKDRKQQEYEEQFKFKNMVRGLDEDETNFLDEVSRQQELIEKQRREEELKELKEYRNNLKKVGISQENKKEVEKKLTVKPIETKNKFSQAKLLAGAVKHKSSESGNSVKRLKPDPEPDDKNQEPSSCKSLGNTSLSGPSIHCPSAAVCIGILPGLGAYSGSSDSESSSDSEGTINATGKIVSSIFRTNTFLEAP
UniProt Q9BZL1: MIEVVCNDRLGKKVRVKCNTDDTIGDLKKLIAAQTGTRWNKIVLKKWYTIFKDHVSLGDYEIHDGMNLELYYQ
UniProt Q9H0E3: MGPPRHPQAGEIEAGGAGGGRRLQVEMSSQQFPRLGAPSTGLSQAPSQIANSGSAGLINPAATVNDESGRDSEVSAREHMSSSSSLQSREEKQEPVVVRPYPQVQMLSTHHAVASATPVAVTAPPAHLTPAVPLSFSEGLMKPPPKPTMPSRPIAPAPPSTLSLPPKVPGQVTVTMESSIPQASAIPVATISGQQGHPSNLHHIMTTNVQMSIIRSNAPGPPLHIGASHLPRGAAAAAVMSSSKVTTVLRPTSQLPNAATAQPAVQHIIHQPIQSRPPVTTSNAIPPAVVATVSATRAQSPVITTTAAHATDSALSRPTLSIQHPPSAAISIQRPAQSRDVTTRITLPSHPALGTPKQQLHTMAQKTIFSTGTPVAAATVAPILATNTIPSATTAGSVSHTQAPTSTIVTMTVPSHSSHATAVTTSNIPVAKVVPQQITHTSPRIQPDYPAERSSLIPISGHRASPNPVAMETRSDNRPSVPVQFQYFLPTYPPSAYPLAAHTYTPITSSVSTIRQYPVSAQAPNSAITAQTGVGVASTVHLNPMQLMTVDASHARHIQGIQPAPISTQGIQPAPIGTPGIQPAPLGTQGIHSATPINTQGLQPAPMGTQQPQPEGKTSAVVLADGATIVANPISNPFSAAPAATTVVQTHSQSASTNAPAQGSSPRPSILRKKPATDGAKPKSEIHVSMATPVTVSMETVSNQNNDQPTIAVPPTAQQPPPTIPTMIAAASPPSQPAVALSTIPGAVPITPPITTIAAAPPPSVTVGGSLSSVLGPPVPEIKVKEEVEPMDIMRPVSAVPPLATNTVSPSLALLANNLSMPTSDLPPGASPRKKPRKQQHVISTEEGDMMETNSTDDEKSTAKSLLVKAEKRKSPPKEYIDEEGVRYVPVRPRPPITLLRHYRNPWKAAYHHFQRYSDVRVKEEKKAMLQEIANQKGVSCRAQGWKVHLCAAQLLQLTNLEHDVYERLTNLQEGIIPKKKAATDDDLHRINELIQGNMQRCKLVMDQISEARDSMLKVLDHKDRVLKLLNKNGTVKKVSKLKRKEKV
UniProt Q9C0C4, whole entry: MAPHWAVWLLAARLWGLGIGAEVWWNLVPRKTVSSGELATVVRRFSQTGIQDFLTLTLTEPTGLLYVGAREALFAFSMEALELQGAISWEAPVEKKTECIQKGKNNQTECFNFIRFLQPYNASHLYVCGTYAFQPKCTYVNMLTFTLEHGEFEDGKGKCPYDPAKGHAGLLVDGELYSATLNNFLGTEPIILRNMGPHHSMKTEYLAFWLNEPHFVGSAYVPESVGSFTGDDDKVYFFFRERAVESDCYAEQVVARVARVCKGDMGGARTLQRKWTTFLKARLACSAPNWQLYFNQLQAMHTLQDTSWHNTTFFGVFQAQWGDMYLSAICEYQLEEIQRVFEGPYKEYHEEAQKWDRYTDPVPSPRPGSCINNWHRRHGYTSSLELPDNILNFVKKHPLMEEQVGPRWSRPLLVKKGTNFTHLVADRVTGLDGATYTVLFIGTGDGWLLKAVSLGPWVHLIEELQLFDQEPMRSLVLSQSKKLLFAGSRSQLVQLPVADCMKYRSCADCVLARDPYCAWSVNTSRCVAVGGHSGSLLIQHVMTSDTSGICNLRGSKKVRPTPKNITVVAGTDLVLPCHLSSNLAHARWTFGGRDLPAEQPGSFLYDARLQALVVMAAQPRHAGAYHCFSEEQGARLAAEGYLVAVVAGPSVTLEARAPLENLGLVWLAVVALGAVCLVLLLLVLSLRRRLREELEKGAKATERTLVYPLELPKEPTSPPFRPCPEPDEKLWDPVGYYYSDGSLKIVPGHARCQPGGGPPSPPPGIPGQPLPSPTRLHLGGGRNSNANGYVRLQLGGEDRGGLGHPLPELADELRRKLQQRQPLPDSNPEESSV

Compound: CN[C@@H]1C[C@H]2O[C@@](C)([C@@H]1OC)n1c3ccccc3c3c4c(c5c6ccccc6n2c5c31)C(=O)NC4 [staurosporine]
Assay: log2 fold change of tryptic peptide abundance, ligand vs vehicle (limited proteolysis) (log2 ratio); higher = more trypsin-susceptible (destabilized)
Conditions: ligand concentration: 20 uM; sample: K562 cleared lysate; digestion: 4 min, 22 C (HT-PELSA RT4min, Orbitrap Astral)

Target	log2 fold change
EIF5A2 (peptide sequence: IVEMSTSK, peptide start residue: 40) (UniProt Q9GZV4)	-0.123
SF3B5 (peptide sequence: YTIHSQLEHLQSK, peptide start residue: 5) (UniProt Q9BWJ5)	-0.184
DDX47 (peptide sequence: LQQYYIFIPSKFK, peptide start residue: 238) (UniProt Q9H0S4)	-0.74
MRPL46 (peptide sequence: FLGNAPCGHYTFKFPQAMR, peptide start residue: 204) (UniProt Q9H2W6)	-0.256
PUS3 (peptide sequence: IEHPHLFHEEETK, peptide start residue: 436) (UniProt Q9BZE2)	-0.255
SENP6 (peptide sequence: KFYGNNVEKVPIDIIVNCDDSK, peptide start residue: 274) (UniProt Q9GZR1)	0.345
CUEDC2 (peptide sequence: ARGDLEEAVQMLVEGK, peptide start residue: 171) (UniProt Q9H467)	-0.325
KCTD10 (peptide sequence: SHHLDEDEER, peptide start residue: 282) (UniProt Q9H3F6)	0.245
MAF1 (peptide sequence: SQGGEEEGPLSDK, peptide start residue: 75) (UniProt Q9H063)	0.466
UniProt Q9H115 (peptide sequence: SIQGDGEGDGDLK, peptide start residue: 286)	-0.407
HIPK2 (peptide sequence: TIIVPPLK, peptide start residue: 984) (UniProt Q9H2X6)	-0.294
SRR (peptide sequence: AVVTHSSGNHGQALTYAAK, peptide start residue: 78) (UniProt Q9GZT4)	-0.189
MRPS26 (peptide sequence: ELMAWNQAENRR, peptide start residue: 104) (UniProt Q9BYN8)	-0.102
UniProt Q9GZU8 (peptide sequence: VGISQENKK, peptide start residue: 122)	0.19
UniProt Q9BZL1 (peptide sequence: VKCNTDDTIGDLKK, peptide start residue: 16)	0.199
SAP130 (peptide sequence: IQPDYPAER, peptide start residue: 445) (UniProt Q9H0E3)	-0.173
SEMA4C (peptide sequence: GGLGHPLPELADELRR, peptide start residue: 800) (UniProt Q9C0C4)	-0.103

A portion from the list above, as a working copy:
Target	log2 fold change
DDX47 (peptide sequence: LQQYYIFIPSKFK, peptide start residue: 238) (UniProt Q9H0S4)	-0.74
MRPL46 (peptide sequence: FLGNAPCGHYTFKFPQAMR, peptide start residue: 204) (UniProt Q9H2W6)	-0.256
